Source: PubChem BioAssay AID1224830 (NIAID, 2016)

Assay: 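Regulators of TLR4 signalling towards TNF-alpha in macrophage-like cells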 (primary screen)
System: human THP-1 monocytic leukaemia cells, TNF dual-luciferase reporter clone, PMA-differentiated to macrophage-like cells
Knock-down reagent: siRNA pool against human genes, 50 nM
Duration: LPS for 4 h, given about 3 days after siRNA transfection
Treatment: bacterial LPS (TLR4 ligand), 10 ng/ml
Measured: 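TNF firefly reporter luminescence divided by renilla, normalised to the plate median, then turned into a robust z-score for each replicate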
Scale: TNF reporter robust z-score: higher = stronger TNF reporter response to LPS
Active means: 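Each well counts as active if its z-score is over 2.8 or under -1.5; controls are left without a call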
This is an unselected part of about 18,000 deposited reagents. Over the whole deposit, about 2,900 (16%) are marked active. 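Calls are made per well; low scores hint the gene aids the LPS response, high scores that it dampens it.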 Entries without a mark were called inactive. Repeated entries: four replicate wells of each siRNA pool.

| target gene | PubChem SID | TNF reporter robust z-score |
| --- | --- | --- |
| IQCF2 | SID315464539 | 2.09 |
| IQCF2 | SID315464539 | 1.97 |
| IQCF2 | SID315464539 | 1.87 |
| IQCF2 | SID315464539 | 4.59 (active) |
| DDIT4 | SID315457069 | 0.9 |
| DDIT4 | SID315457069 | 0.12 |
| DDIT4 | SID315457069 | 1.08 |
| DDIT4 | SID315457069 | 0.76 |
| EFCAB3 | SID315462295 | 0.31 |
| EFCAB3 | SID315462295 | 0.81 |
| EFCAB3 | SID315462295 | -0.01 |
| EFCAB3 | SID315462295 | 0.93 |
| ANXA1 | SID315447321 | 0.11 |
| ANXA1 | SID315447321 | 1 |
| ANXA1 | SID315447321 | 1.07 |
| ANXA1 | SID315447321 | 1.61 |
| PSMA1 | SID315450883 | -1.34 |
| PSMA1 | SID315450883 | 0.03 |
| PSMA1 | SID315450883 | -1.36 |
| PSMA1 | SID315450883 | -0.66 |

Active calls, of those listed so far:
| target gene | PubChem SID | TNF reporter robust z-score |
| --- | --- | --- |
| IQCF2 | SID315464539 | 4.59 (active) |

More reagents follow:
| target gene | PubChem SID | TNF reporter robust z-score |
| --- | --- | --- |
| PSTPIP2 | SID315453001 | 1.56 |
| PSTPIP2 | SID315453001 | 1.04 |
| PSTPIP2 | SID315453001 | 1.73 |
| PSTPIP2 | SID315453001 | 2.27 |
| LILRA1 | SID315454543 | -0.99 |
| LILRA1 | SID315454543 | -0.31 |
| LILRA1 | SID315454543 | -0.03 |
| LILRA1 | SID315454543 | -0.72 |
| NPAP1 | SID315455416 | -1.18 |
| NPAP1 | SID315455416 | -1.71 (active) |
| NPAP1 | SID315455416 | -1.25 |
| NPAP1 | SID315455416 | -1.37 |
| TRAPPC13 | SID315459616 | -1.1 |
| TRAPPC13 | SID315459616 | -1.49 |
| TRAPPC13 | SID315459616 | -1.01 |
| TRAPPC13 | SID315459616 | -0.85 |
| KCTD10 | SID315460120 | -0.13 |
| KCTD10 | SID315460120 | -0.56 |
| KCTD10 | SID315460120 | -0.2 |
| KCTD10 | SID315460120 | 0.96 |
| DCDC2 | SID315456729 | -0.41 |
| DCDC2 | SID315456729 | 0.67 |
| DCDC2 | SID315456729 | 0.9 |
| DCDC2 | SID315456729 | 2.44 |
| NRP1 | SID315452856 | -1.23 |
| NRP1 | SID315452856 | -1.21 |
| NRP1 | SID315452856 | -0.78 |
| NRP1 | SID315452856 | -0.66 |
